This note sets out measurements from PubChem BioAssay AID493014 (National Center for Advancing Translational Sciences (NCATS), 2011).

The other results are listed elsewhere or left out. These are further read-outs of the screen, such as a control signal, another cell line or another target. No call is given for them. Compounds called inactive in the main read-out are mostly missing here. Words in brackets tell the shape of the fitted curve; partial curves, single points and poor fits give uncertain potencies.

The nature of this test: qHTS Assay to Find Inhibitors of Chronic Active B-Cell Receptor Signaling. Conditions: ABC-DLBCL IkBa-CBG/CBR reporter, luminescence ratio (green luciferase fused to IkBa over red control in TMD8 lymphoma cells), 4 h. An outline of the steps:
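TMD8 ABC-DLBCL cells carrying doxycycline-inducible green luciferase fused to IkappaBalpha plus unfused red luciferase were exposed to compounds (up to 46 uM) for 4 hrs at 37C. Activity came from the overlap-corrected green/red luminescence ratio.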
(In general: Quantitative high-throughput screening tests each substance at several concentrations.)

Where [1] appears, read: measured here: CBR red luminescence, cell number.
The mark [2] stands for this setting: measured here: IkBa-CBG green luminescence.

Consider `CCOC(=O)c1oc2ccccc2c1COC(=O)CNC(=O)c1ccccc1OC`, for which the AC50 (commonly the concentration at which the activity in the assay is half-maximal) under setting [1] is 2.31 µM [rising, full curve, poor fit].
Still for that read-out and setting: next, `CN1CCN(C2Cc3ccccc3Sc3ccc(Cl)cc32)CC1` (stereo unspecified): 9.2 µM [falling, partial curve]; `C=C(C)COc1ccc(-c2nc(N)ncc2-c2ccccc2OC)c(O)c1`: 0.631 µM [rising, full curve, poor fit]; `CCOc1ccc(C(=O)C(CN2CCOCC2)c2ccccc2)cc1` (stereo unspecified): 29.1 µM [falling, single point].
Still for that read-out and setting: next, `Cc1cc(C(=O)NC2CCCc3c2cnn3-c2ccc(C(C)(C)C)cc2)nn1C` (stereo unspecified): 35.5 µM [falling, single point]; `Cc1nn(CCCNC(=O)C2CCCO2)cc1Br` (stereo unspecified): 0.517 µM [falling, full curve, poor fit].
In the case of `CC1(C)CC(=O)C2=C(C1)N(CC1CCCO1)C(=O)C2(O)C(F)(F)F` (stereo unspecified), the AC50 under setting [1] was 29.1 µM [rising, single point].
On to `Cc1ccc(S(=O)(=O)N2CCCC2)cc1C(=O)NCc1ccccn1`, for which the concentration at half-maximal activity (AC50) under setting [1] was 11.2 µM [falling, partial curve, poor fit].
The same measure, in the same setting: next, `COc1cccc(C2SCC(=O)N2c2cccc(C)c2)c1OC` (stereo unspecified): 4.11 µM [rising, full curve, poor fit]; `CCN(CC)CC(O)CN1c2ccccc2Sc2ccccc21` (stereo unspecified): 15.8 µM [falling, single point].
The same measure, in the same setting: next, `O=C(Nc1ccc(Cl)c(Cl)c1)c1csc(-c2ccccc2)n1`: 2.59 µM [rising, partial curve, poor fit]; `CCN1CCN(S(=O)(=O)c2ccc(Cl)c(C(=O)N(C)Cc3ccccc3)c2)CC1`: 29.1 µM [rising, single point].
Same read-out and setting: next, `COc1ccc(C)cc1Nc1nc(N)c2cc(OC)c(OC)cc2n1`: 2.82 µM [falling, partial curve]; `CC(C(=O)Nc1ccccc1F)N1CCN(C)CC1` (stereo unspecified): 12.6 µM [rising, partial curve, poor fit]; `COCc1cc(C)nc(SCc2ccccc2)c1C#N`: 35.5 µM [rising, single point].
For the compound `CCOc1cc(C(=O)Nc2cc(F)ccc2C)ccc1OCC(=O)N1CCOCC1`, the AC50 under setting [1] is 0.731 µM [rising, full curve, poor fit].
With `CCCCn1c(=NC(=O)c2ccco2)c(C(=O)OCC)cc2c(=O)n3cccc(C)c3nc21`, the AC50 under setting [2] was 14.1 µM [rising, single point].
As for `CCc1cccc(NC(=O)C2CCN(S(=O)(=O)c3cccc(-c4noc(C)n4)c3)CC2)c1`, the AC50 under setting [1] is 0.158 µM [falling, full curve, poor fit].
The same measure, in the same setting: next, `O=C(CSc1nnc(-c2ccco2)n1Cc1ccccc1)NC(=O)NCc1ccccc1`: 20 µM [falling, single point].
The same measure, in the same setting: next, `C=CC[C@@H](Cc1ccc(F)cc1)C(=O)OC[C@@H]1CCCN1C(=O)[C@@H](CC=C)CC(=O)N[C@@H](CO)Cc1ccccc1`: 18.4 µM [falling, partial curve]; `CC1(C)Cc2c(cnn2-c2cccc(F)c2)C(NC(=O)CSc2ccncc2)C1` (stereo unspecified): 6.31 µM [falling, single point]; `CC(C)(C)NC(=O)CSc1nncn1NCc1cccc2ccccc12`: 18.4 µM [falling, single point].
Still for that read-out and setting: next, `CCOC(=O)N1CCN(C(=O)COc2cccc3c2CCN(CC)C3=O)CC1`: 12.6 µM [falling, partial curve, poor fit]; `CCOC(=O)[C@H]1[C@H]2COc3ccc(OC)cc3[C@@H]2N2C(=O)CN(Cc3ccccc3)C(=O)[C@@]12C`: 8.2 µM [falling, partial curve].
`CC(C)CC(=O)Nc1ccc(C(=O)Cn2nc(C(=O)O)c3ccccc3c2=O)cc1`: under setting [1], the concentration at half-maximal activity (AC50) is 29.1 µM [rising, single point].
Still for that read-out and setting: next, `COc1cccc(NC(=O)Cc2cccs2)c1`: 0.794 µM [rising, full curve, poor fit]; `O=C(COC(=O)c1ccc(Cl)c(S(=O)(=O)N2CCCCCC2)c1)Nc1ccccc1`: 29.1 µM [falling, single point].
On the same count and under the same terms, next, `N/C(=N\OC(=O)c1ccco1)c1cccc([N+](=O)[O-])c1`: 2.51 µM [rising, full curve, poor fit]; `C/C(=C\c1ccccc1)C(=O)c1c(C)cc(C)[nH]c1=O`: 35.5 µM [falling, single point]; `CC(=O)NCC(=O)OCC(=O)c1ccccc1`: 29.1 µM [rising, single point].
With `CCOC(=O)c1c(C)[nH]c(C)c1C(=O)CSc1nnnn1-c1ccccc1`, the AC50 under setting [1] was 16.4 µM [rising, single point] and the AC50 under setting [2] is 32.6 µM [falling, partial curve, poor fit].
As to `Cc1ccsc1-c1nc(CSCC(=O)N2CCN(c3ccccc3)CC2)c(C)o1`, under setting [1], the concentration at half-maximal activity (AC50) is 0.461 µM [falling, full curve].
Still for that read-out and setting: next, `CC(C)(C)[C@@H]1C=C(C(=O)NC2CC2)O[C@H](OCc2ccc(CO)cc2)C1`: 6.31 µM [rising, single point]; `O=C(NCCCn1ccnc1)c1ccc2c(c1)OCCO2`: 7.94 µM [falling, partial curve, poor fit]; `COCCN(C(=O)COC(=O)C1CCC(C(C)(C)C)CC1)c1c(N)n(Cc2ccccc2)c(=O)[nH]c1=O` (stereo unspecified): 32.6 µM [falling, partial curve, poor fit].
Still for that read-out and setting: next, `CCOC(=O)c1ccc(N2CSC3=C(C#N)C(c4ccc(OC)cc4OC)CC(=O)N3C2)cc1` (stereo unspecified): 6.51 µM [rising, single point]; `Cn1c(NNC(=O)/C=C/c2ccc3c(c2)OCO3)cc(=O)n(C)c1=O`: 0.891 µM [falling, full curve, poor fit].
The same measure, in the same setting: next, `CC(C)(C)NC(=O)c1ccc2c(c1)C(=O)N(C1CCCCC1)C2=O`: 13 µM [rising, partial curve].
Turning to `O=C(OCc1nnc(-c2ccccc2)o1)c1ccc2c(c1)C(=O)N(CCc1ccccc1)C2=O`, under setting [1], the AC50 was 32.6 µM [falling, single point].
Still for that read-out and setting: next, `COC(=O)CC1NCCc2cc(OC)c(OC)cc21` (stereo unspecified): 6.31 µM [falling, partial curve, poor fit].
